Assay results reported in the supplement of paper PMC3334620.
The full ranking holds about 33,000 sequences; the median of “E-score (-0.5 to 0.5)” is about -0.015, and the highest 2% start at about 0.3. The list shows a part of the results.

These sequences were tested against T1, Abf1 (UniProt P14164) (assay: PBM E-score (8-mer binding enrichment) (E-score (-0.5 to 0.5)); higher = stronger / more preferred TF binding). Conditions: protein concentration: 200 nM; construct: GST-full length.
T1 sequence: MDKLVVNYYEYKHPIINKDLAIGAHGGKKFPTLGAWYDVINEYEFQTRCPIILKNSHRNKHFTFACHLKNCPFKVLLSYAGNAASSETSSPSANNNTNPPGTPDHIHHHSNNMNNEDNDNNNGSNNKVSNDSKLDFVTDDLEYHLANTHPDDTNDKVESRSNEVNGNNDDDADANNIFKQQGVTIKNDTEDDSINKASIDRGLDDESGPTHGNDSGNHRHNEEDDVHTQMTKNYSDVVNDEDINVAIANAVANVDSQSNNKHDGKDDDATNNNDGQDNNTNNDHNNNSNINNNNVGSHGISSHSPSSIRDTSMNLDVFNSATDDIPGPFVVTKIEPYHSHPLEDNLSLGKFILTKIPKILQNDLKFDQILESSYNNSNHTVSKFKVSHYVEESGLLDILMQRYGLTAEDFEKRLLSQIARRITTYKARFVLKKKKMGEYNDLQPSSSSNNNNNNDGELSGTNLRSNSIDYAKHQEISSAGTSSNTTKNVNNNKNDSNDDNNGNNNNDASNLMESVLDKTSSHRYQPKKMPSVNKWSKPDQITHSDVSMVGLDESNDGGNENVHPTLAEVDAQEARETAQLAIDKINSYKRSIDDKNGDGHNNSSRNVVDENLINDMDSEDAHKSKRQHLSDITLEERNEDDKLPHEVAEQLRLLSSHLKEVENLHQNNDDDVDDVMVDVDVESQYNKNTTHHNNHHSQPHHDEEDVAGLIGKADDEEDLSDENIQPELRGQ
In short: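 Universal all-10-mer Agilent arrays, fresh or stripped once, were converted to double-stranded form by primer extension. GST-tagged yeast transcription factors from PURExpress in vitro transcription/translation, full-length or DNA-binding domain only, were applied at about 100-200 nM and detected with fluorescent anti-GST. After masliner normalisation, the Universal PBM Analysis Suite scored each ungapped eight-base word together with its reverse complement by E-score.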

Point of comparison: CTCAAGCC, “PBM E-score” value -0.315. Against it:
- CATGCGCC — higher, -0.0508
- CCCAGCGC — higher, -0.176
- AATTGCAA — higher, -0.0314
- CACAACGC — higher, -0.174
- CCTCCCAG — higher, -0.196
- ATTATTTC — higher, 0.211
- AGGCCGTG — higher, 0.092
- AAGTAATT — higher, 0.129
- GGTAGCAC — higher, -0.167
- GTTTCGGA — higher, 0.0277
- AGCATACA — higher, 0.0592
- GAATGCGA — higher, 0.0209
- CTATCCAG — higher, -0.134
- AGTAGCTA — higher, -0.112
- GAGAGAGC — higher, -0.116
- CGGCCGAA — higher, -0.0221
- CGGTGGAG — higher, -0.135
- GGGATCAA — higher, 0.0464
- GACGGACA — higher, 0.0588
- AGCCTTAT — higher, 0.0606
- TGAAACCA — higher, -0.0487
- ATTGTCTC — higher, 0.13
- CGCCATGA — higher, 0.101
- TACTGTAA — higher, -0.146
- ACGACTGA — higher, 0.144
- CAACTCGA — higher, -0.127
- AGTAGGCG — higher, -0.0728
- CTATAGTA — higher, -0.00399
- GGTGGGAA — higher, -0.0486
- CCTCCGCC — higher, -0.059
- CACGCGCA — higher, -0.025
- AATAGCTG — higher, -0.064
- ATTTCAAA — higher, 0.109
- AATTTCCG — higher, 0.169
- ATATCAGG — higher, 0.0336
- ACCCTCAA — higher, -0.107
- GGGACCCA — lower, -0.327
- CGAGATGC — higher, 0.0945
- ATCCTTGA — higher, -0.145
- CTGTAACC — higher, -0.0333
- CAGGGATG — higher, 0.0507
- CGATTTAA — higher, 0.12
- CATTAAAC — higher, 0.0861
- ATGTCCGA — higher, 0.00408
- AGTGGACC — higher, -0.0472
- AATGGGGC — higher, -0.224
- AAAATATT — higher, 0.0903
- GCTCTCCC — higher, -0.275
- GGGAGGGA — higher, -0.238
- AAAGCATG — higher, -0.188
- CCGGGAAA — higher, -0.0258
- ATTATGCA — higher, -0.114
- GAGTAACA — higher, 0.0227
- CATAAATC — higher, 0.00674
- GATTTGGA — higher, 0.0327
- ATCTTCTA — higher, 0.119
- AAGGGTCA — higher, -0.128
- GCATTCCC — higher, -0.0595
- TACCTCAA — higher, 0.0571
- ACGGAAGC — higher, 0.167
- CACCCTGC — higher, 0.0175
- AAGGTTTA — higher, -0.0569
- TTGTGAAA — higher, 0.0588
- ACATGATC — higher, 0.292
- CGCCAGCG — higher, -0.0651
- CAAGAGGA — higher, 0.0603
- AAAGCAGA — higher, -0.0436
- GACCAACC — higher, 0.045
- ATATTCCC — higher, -0.0189
- GAATTGCC — higher, -0.00785
- ACATACCC — higher, -0.0101
- GCAAAGGA — higher, 0.032
- ATCAACTA — higher, 0.0982
- ATACGACC — higher, 0.239
- CGCGCTCA — higher, 0.00581
- AAGCGAAC — higher, -0.113
- AAATCATA — higher, 0.194
- CGCCAGGA — higher, -0.139
- ACGAGCAG — higher, -0.00465
- AGCGACGG — higher, 0.208
- CTGGGCTA — higher, -0.216
- CTATTTCA — higher, 0.162
- CACCGGAC — higher, -0.163
- ACATTGGC — higher, -0.102
- ACCGTCGT — higher, 0.289
- CATCTTCC — higher, 0.126
- GTCGGTTA — higher, -0.00726
- GGGCGAAC — higher, -0.164
- CGGGCGAA — higher, -0.0488
- CAGGATGG — higher, -0.126
- TAGCGATA — higher, 0.347
- AGGCGAAA — higher, 0.0109
- CGGAGAGA — higher, -0.0233
